The subject of the assay is Salmonella enterica serovar Typhimurium SL1344. Kind of assay: bacterial growth OD600 after 18 h with compound and polymyxin B; higher = more bacterial growth (less inhibition). The settings on record: 50 µM, Mueller-Hinton broth.

Structures are written as SMILES. This is one part of the list. Values are raw readings; no control value is given beside them.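 Primary screen: polymyxin B was added at a level permeabilizing Salmonella outer membranes while sparing inner membranes. DMSO wells, both with and without polymyxin B, established maximum growth. Plate-to-plate variation meant each plate was ranked on its own, and the lowest-OD600 compounds were selected as hits.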

With `Cc1ncc2c(c1CNC(=O)c1ccc3c(c1)OCO3)CCN(C(=O)c1c(F)cccc1Cl)C2`, the “bacterial growth OD600” value (polymyxin B 0.75 µg/mL) came to 0.906. Still for that read-out and setting: with `O=C(CCC(F)(F)F)N1CCC(C2CCN(c3ncccn3)CC2)C1` (stereo not given) the figure was 0.729; with `COCCC(=O)N1CCCC(CCc2ccccc2C)C1` (stereo not given), 0.661; with `COCCCNc1nc2nonc2nc1NC[C@@H]1CCCN2CCCC[C@H]12`, 0.811.

As for `CC(=O)NCCC1CCN(c2nc3nonc3nc2N2CCCCCC2)CC1`, the “bacterial growth OD600” value (polymyxin B 1 µg/mL) was 0.954.

On to `CC1=C(C(=O)NC2CC(=O)N(Cc3ccccc3C(F)(F)F)C2)OCCO1` (stereo not given), for which the “bacterial growth OD600” value (polymyxin B 1 µg/mL) is 0.925. The same measure, in the same setting: in the case of `COCC(=O)NCc1cccnc1Oc1ccccc1OC` it was 0.924. Regarding `OC(Cc1ccccc1)c1ccc2c(c1)CN(Cc1cccn1-c1cccnc1)CCO2` (stereo not given), under “polymyxin B 0.75 µg/mL”, the “bacterial growth OD600” value is 0.806. For `OCCC1CN(Cc2cc3c(cc2Cl)OCO3)CCN1Cc1ccccc1F` (stereo not given), the “bacterial growth OD600” value (polymyxin B 1 µg/mL) was found to be 0.654. Same read-out and setting: with `COc1ccc(CNC(=O)CCC2CCCN(Cc3ccc(F)c(OC)c3)C2)c(OC)c1` (stereo not given) the figure was 1.09; with `CCOC(=O)C1(Cc2ccc(Cl)cc2)CCN(Cc2ccc(OC)c(O)c2)CC1`, 1.03; with `CC(C)CCCC1CN(C(=O)CCc2ccncc2)CCO1` (stereo not given), 0.937. Turning to `COCCCN1C(=O)CC(CC(=O)NCCc2ccccc2OC)(c2ccccc2)C1=O` (stereo not given), where the note is “polymyxin B 0.75 µg/mL”, the “bacterial growth OD600” value came out at 0.75. On the same count and under the same terms, with `CN(CC1(c2ccccc2)CC1(C)C)C(=O)CCC1(Cc2ccc(F)cc2)CCC(=O)N1` (stereo not given) the figure was 0.576; with `Cc1nc(N2CCC(C(=O)NCCCOC(C)C)CC2)nc2cc(S(C)(=O)=O)ccc12`, 0.93. As for `COCCO[C@H]1[C@H](NC(=O)C(C)C)c2ccccc2C12CCN(Cc1c(C)nn(C)c1Cl)CC2`, under “polymyxin B 0.75 µg/mL”, the “bacterial growth OD600” value worked out at 0.877. Regarding `CN(CC1CCN(CCc2ccc(F)cc2)CC1)C1CCN(Cc2cccnc2)CC1`, the “bacterial growth OD600” value (polymyxin B 1 µg/mL) turned out to be 1.14.

For `O=C(CCc1cnccn1)NC1CC(=O)N(Cc2cccc3ccccc23)C1` (stereo not given), the “bacterial growth OD600” value (polymyxin B 1 µg/mL) came out at 0.801.

As for `O=C(CCC1(Cc2ccc(Cl)cc2)CCC(=O)N1)NCCc1ccc(F)cc1` (stereo not given), the “bacterial growth OD600” value (polymyxin B 0.75 µg/mL) is 0.943. On to `CC(CCn1cccn1)NC(=O)c1ccc(OC2CCN(C(=O)C3CC3)CC2)cc1` (stereo not given), for which the “bacterial growth OD600” value (polymyxin B 1 µg/mL) is 0.833.

As to `O=C(COc1ccc(N2CCN(c3ccccn3)CC2)nn1)NCCC(c1ccccc1)c1ccco1` (stereo not given), where the note is “polymyxin B 0.75 µg/mL”, the “bacterial growth OD600” value was determined as 0.515.

For the compound `COc1cccc(CC(C2CCN(C(=O)c3ccccc3OC)CC2)N(C)C(=O)c2ccsc2)c1` (stereo not given), the “bacterial growth OD600” value (polymyxin B 0.75 µg/mL) was 0.641. With `CCn1cc(CN2CCOC(Cc3cccc(C(F)(F)F)c3)C2)cn1` (stereo not given), under “polymyxin B 0.75 µg/mL”, the “bacterial growth OD600” value was found to be 0.803. For `COC(=O)c1cccc(C(=O)N2CCC(C(Cc3ccccc3)N(C)C(=O)Cn3cccn3)CC2)c1` (stereo not given), the “bacterial growth OD600” value (polymyxin B 0.75 µg/mL) was 0.976. As to `COc1ccc(CNC(=O)CCC2(Cc3ccc(Cl)cc3)CCC(=O)N2)cc1OC` (stereo not given), for the setting “polymyxin B 0.75 µg/mL”, the “bacterial growth OD600” value came to 0.837. With `Cc1cc(C)n(CC(=O)N2CCOc3c(cc(-c4csc5ccccc45)cc3OCc3ccccn3)C2)n1`, the “bacterial growth OD600” value (polymyxin B 0.75 µg/mL) stood at 0.079. Take `O=C1CC(NC2CCCCC2)CN1CCc1ccccc1` (stereo not given): the “bacterial growth OD600” value (polymyxin B 1 µg/mL) worked out at 1.12. As to `Cc1cc(C)n(CCC(=O)NC2CCCc3nc(-c4cccnc4)ncc32)n1` (stereo not given), under “polymyxin B 0.75 µg/mL”, the “bacterial growth OD600” value came to 0.849.

Take `CCC(=O)N[C@@H]1c2ccccc2C2(CCN(C(=O)c3cccc(OC)c3OC)CC2)[C@H]1OCCOC`: the “bacterial growth OD600” value (polymyxin B 0.75 µg/mL) turned out to be 0.714. Regarding `Cc1ccc(Oc2ncccc2CNC(=O)CN(C)C)c(F)c1F`, the “bacterial growth OD600” value (polymyxin B 1 µg/mL) amounted to 1.02.
